Source: article PMC12741050
Results are given in words; binding and its absence hold for the method and conditions named. In cells and extracts the contact can be indirect. A result given as binding can be weak or reduced; the word gives no strength.

Chains of the proteins cited; added tags and fusions are not shown. Lines headed by an entry give the natural chain unless they say otherwise; changes in a name come on top.
UniProt P08476: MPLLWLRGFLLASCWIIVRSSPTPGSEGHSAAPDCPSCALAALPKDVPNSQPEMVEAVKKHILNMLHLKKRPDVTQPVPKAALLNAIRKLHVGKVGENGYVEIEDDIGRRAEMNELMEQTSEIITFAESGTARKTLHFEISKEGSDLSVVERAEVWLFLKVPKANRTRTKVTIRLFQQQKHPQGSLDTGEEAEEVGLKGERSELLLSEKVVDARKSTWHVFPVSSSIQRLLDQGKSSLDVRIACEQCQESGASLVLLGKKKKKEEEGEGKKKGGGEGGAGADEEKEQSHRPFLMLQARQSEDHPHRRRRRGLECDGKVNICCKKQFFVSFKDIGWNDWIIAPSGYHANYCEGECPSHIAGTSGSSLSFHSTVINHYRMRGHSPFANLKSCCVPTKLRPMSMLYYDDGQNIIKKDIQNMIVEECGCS
UniProt P19474: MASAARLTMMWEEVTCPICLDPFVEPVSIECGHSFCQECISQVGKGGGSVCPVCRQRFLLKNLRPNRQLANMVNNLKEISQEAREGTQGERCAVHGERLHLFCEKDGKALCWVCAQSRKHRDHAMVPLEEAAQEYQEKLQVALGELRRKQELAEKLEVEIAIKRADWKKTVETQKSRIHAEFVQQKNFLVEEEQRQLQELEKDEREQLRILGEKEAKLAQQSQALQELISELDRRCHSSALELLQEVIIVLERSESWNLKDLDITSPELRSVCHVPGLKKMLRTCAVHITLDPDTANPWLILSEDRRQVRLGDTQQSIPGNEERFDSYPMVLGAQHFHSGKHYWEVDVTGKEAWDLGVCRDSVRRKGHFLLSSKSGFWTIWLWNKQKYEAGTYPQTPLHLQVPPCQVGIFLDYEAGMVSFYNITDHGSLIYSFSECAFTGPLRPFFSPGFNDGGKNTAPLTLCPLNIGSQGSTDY

Molecular target: Flag-INHBA (human inhibin beta A, plasmid human INHBA pcDNA3.1-Flag-C) (human) (UniProt P08476)
Assay: co-IP; CRC cell lysates; protein A/G magnetic beads with antibody or anti-Flag / anti-HA magnetic beads, overnight at 4 °C, six washes with lysis buffer, Western blot

- binding: binds
Substance: TRIM21 in CRC cells (no TRIM21 construct named) (from UniProt P19474 1-475)
